Test results: paper doi:10.1101/575241
Where two headings read alike, the source gives them in different places. These are yes or no findings as the source states them, for the method shown. Some binding calls cover weakened binding; strength is not graded here.

Amino acid sequences for entries named in this document (tags omitted). A change or cut given only in a name is not applied to a line headed by its entry. Chains listed by the source or under a name are the forms on record and can include a tag or linker. Residues count along the entry.
UniProt P36096, residues 655-758: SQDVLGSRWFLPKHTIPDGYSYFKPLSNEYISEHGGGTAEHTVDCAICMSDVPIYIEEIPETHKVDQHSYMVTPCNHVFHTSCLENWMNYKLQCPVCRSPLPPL
UniProt Q06651: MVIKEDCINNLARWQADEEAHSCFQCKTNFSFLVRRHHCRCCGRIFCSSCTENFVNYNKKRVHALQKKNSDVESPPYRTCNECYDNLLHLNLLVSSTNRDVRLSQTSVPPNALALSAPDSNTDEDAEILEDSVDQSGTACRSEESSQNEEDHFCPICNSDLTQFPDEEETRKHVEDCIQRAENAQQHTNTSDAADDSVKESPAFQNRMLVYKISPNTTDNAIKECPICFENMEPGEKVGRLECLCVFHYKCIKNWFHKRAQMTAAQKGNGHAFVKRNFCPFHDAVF
UniProt P15731: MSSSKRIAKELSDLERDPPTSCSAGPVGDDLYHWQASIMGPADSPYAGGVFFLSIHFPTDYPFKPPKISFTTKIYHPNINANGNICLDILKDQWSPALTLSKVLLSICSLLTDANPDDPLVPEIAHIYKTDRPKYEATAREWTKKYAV
UniProt P33296: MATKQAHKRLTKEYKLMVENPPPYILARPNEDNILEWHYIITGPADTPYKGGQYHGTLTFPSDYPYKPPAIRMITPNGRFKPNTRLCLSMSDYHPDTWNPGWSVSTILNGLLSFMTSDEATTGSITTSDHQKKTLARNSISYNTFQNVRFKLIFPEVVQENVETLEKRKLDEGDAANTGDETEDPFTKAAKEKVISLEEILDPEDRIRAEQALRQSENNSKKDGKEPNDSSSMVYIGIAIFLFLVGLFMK
UniProt P61088: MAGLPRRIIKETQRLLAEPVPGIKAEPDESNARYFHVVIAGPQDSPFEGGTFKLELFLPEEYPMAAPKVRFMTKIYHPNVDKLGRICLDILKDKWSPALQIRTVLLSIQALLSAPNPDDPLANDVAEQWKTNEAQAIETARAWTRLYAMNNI
UniProt Q15819: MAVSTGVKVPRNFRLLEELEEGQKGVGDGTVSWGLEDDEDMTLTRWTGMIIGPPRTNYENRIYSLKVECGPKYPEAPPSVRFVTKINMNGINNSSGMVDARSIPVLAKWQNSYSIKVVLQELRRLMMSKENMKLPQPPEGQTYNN
UBE2V1 (Q13404-2, form named): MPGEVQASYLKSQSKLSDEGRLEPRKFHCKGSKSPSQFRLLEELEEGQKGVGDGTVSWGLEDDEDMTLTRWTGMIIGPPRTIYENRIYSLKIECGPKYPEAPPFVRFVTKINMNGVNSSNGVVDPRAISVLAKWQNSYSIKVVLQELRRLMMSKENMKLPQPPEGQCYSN

Legend:
Assay in all cases: two-hybrid
[1] = biological target: Tul1 (aa 655-758) (S. cerevisiae) (UniProt P36096)
Human ZNRF2 (human) [2] = biological target: T1, Human ZNRF2 (human) (UniProt Q8NHG8)
T1 sequence: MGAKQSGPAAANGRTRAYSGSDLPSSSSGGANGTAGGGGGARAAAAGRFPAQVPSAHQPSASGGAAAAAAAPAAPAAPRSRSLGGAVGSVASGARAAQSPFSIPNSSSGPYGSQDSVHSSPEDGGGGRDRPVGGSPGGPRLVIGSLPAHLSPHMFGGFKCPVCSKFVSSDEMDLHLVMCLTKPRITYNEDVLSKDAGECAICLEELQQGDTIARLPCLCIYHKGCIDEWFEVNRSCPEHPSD

Pib1 (S. cerevisiae) [3] = biological target: Pib1 (S. cerevisiae) (UniProt Q06651)
Human ZNRF2 (human) [4] = biological target: T1, Human ZNRF2 (human); remark: listed apart in the source
Pib1 (S. cerevisiae) [5] = biological target: Pib1 (S. cerevisiae) (UniProt Q06651); remark: listed apart in the source
[6] = biological target: Tul1 (aa 655-758) (S. cerevisiae) (UniProt P36096); remark: listed apart in the source

Ubc4 (from UniProt P15731 1-148) (enzyme)
binding [1]: no binding

Ubc6 (from UniProt P33296 1-250) (enzyme)
binding [1]: binds weakly

human UBC13 (from UniProt P61088 1-152) (enzyme)
binding (Human ZNRF2 (human) [2]): binds

UBE2V2 (from UniProt Q15819 1-145)
binding (Human ZNRF2 (human) [2]): binds weakly

UBE2V1 (from UniProt Q13404-2 1-170)
binding (Human ZNRF2 (human) [2]): binds weakly

B1: Ubc13 (enzyme, UniProt P52490 1-153)
chain: MASLPKRIIKETEKLVSDPVPGITAEPHDDNLRYFQVTIEGPEQSPYEDGIFELELYLPDDYPMEAPKVRFLTKIYHPNIDRLGRICLDVLKTNWSPALQIRTVLLSIQALLASPNPNDPLANDVAEDWIKNEQGAKAKAREWTKLYAKKKPE
binding (Pib1 (S. cerevisiae) [3]): binds | binding (Human ZNRF2 (human) [4]): binds | binding (Pib1 (S. cerevisiae) [5]): binds | binding [6]: binds weakly

B2: Mms2 (protein, UniProt P53152 1-137)
chain: MSKVPRNFRLLEELEKGEKGFGPESCSYGLADSDDITMTKWNGTILGPPHSNHENRIYSLSIDCGPNYPDSPPKVTFISKINLPCVNPTTGEVQTDFHTLRDWKRAYTMETLLLDLRKEMATPANKKLRQPKEGETF
binding (Human ZNRF2 (human) [4]): binds weakly | binding [6]: binds weakly
